From patent publication US9469650B2, “Melampomagnolide B derivatives” (BOARD OF TRUSTEES OF THE UNIVERSITY OF ARKANSAS, priority 2013, dated 2016)
At least one read-out could not be matched to a standard name with certainty.

Key:
[1] = test system: 786-0; experiment: panel of 60 human tumor cell lines, growth inhibition (Renal Cancer)
[2] = test system: HCT-116; experiment: panel of 60 human tumor cell lines, growth inhibition (Colon Cancer)
[3] = test system: MDA-MB-468; experiment: panel of 60 human tumor cell lines, growth inhibition (Breast Cancer)
[4] = test system: SNB-75; experiment: panel of 60 human tumor cell lines, growth inhibition (CNS Cancer)
[5] = test system: A498; experiment: panel of 60 human tumor cell lines, growth inhibition (Renal Cancer)
[6] = test system: NCI-H322M; experiment: panel of 60 human tumor cell lines, growth inhibition (Non-Small Cell Lung Cancer)
[7] = test system: SK-MEL-28; experiment: panel of 60 human tumor cell lines, growth inhibition (Melanoma)
[8] = test system: OVCAR-5; experiment: panel of 60 human tumor cell lines, growth inhibition (Ovarian Cancer)
[9] = test system: HOP-62; experiment: panel of 60 human tumor cell lines, growth inhibition (Non-Small Cell Lung Cancer)
[10] = test system: RXF 393; experiment: panel of 60 human tumor cell lines, growth inhibition (Renal Cancer)
[11] = test system: SF-295; experiment: panel of 60 human tumor cell lines, growth inhibition (CNS Cancer)
[12] = test system: TK-10; experiment: panel of 60 human tumor cell lines, growth inhibition (Renal Cancer)
[13] = test system: LOX IMVI; experiment: panel of 60 human tumor cell lines, growth inhibition (Melanoma)
[14] = test system: M14; experiment: as above
[15] = test system: A549/ATCC; experiment: panel of 60 human tumor cell lines, growth inhibition (Non-Small Cell Lung Cancer)
[16] = test system: COLO 205; experiment: panel of 60 human tumor cell lines, growth inhibition (Colon Cancer)
[17] = test system: SK-MEL-2; experiment: panel of 60 human tumor cell lines, growth inhibition (Melanoma)
[18] = test system: HS 578T; experiment: panel of 60 human tumor cell lines, growth inhibition (Breast Cancer); conditions: HS 57BT
[19] = test system: HCC-2998; experiment: panel of 60 human tumor cell lines, growth inhibition (Colon Cancer)
[20] = test system: T-47D; experiment: panel of 60 human tumor cell lines, growth inhibition (Breast Cancer)
[21] = test system: SN12C; experiment: panel of 60 human tumor cell lines, growth inhibition (Renal Cancer)

In the case of C=C1C(=O)O[C@H]2[C@H]1CC/C(COC(=O)OCCN(C)C)=C\CC[C@@]1(C)O[C@@H]21 [JVM 2-35], the “Percent Growth” value ([1]; Log10 Concentration −4.0) is reported as −94%, the “Percent Growth” value ([1]; Log10 Concentration −5.0) is reported as 9% and the “Percent Growth” value ([1]; Log10 Concentration −6.0) is reported as 83%. The “Percent Growth” value ([1]; Log10 Concentration −7.0) was 89%, the “Percent Growth” value ([1]; Log10 Concentration −8.0) was 94% and the “Percent Growth” value ([2]; Log10 Concentration −4.0) was −100%. For the same molecule, the “Percent Growth” value ([2]; Log10 Concentration −5.0) was 6%, the “Percent Growth” value ([2]; Log10 Concentration −6.0) was 83% and the “Percent Growth” value ([2]; Log10 Concentration −7.0) was 88%. For the same molecule, the “Percent Growth” value ([2]; Log10 Concentration −8.0) was 98%, the “Percent Growth” value ([3]; Log10 Concentration −4.0) was −70% and the “Percent Growth” value ([3]; Log10 Concentration −5.0) was −2%. The “Percent Growth” value ([3]; Log10 Concentration −6.0) was 60%, the “Percent Growth” value ([3]; Log10 Concentration −7.0) was 93% and the “Percent Growth” value ([3]; Log10 Concentration −8.0) was 95%. The “Percent Growth” value ([4]; Log10 Concentration −4.0) was 90%, the “Percent Growth” value ([4]; Log10 Concentration −5.0) was 45% and the “Percent Growth” value ([4]; Log10 Concentration −6.0) was 62%. For the same molecule, the “Percent Growth” value ([4]; Log10 Concentration −7.0) was 68%, the “Percent Growth” value ([4]; Log10 Concentration −8.0) was 76% and the “Percent Growth” value ([5]; Log10 Concentration −4.0) was −89%. For the same molecule, the “Percent Growth” value ([5]; Log10 Concentration −5.0) was 70%, the “Percent Growth” value ([5]; Log10 Concentration −6.0) was 80% and the “Percent Growth” value ([5]; Log10 Concentration −7.0) was 93%. The “Percent Growth” value ([5]; Log10 Concentration −8.0) was 80%, the “Percent Growth” value ([6]; Log10 Concentration −4.0) was 9% and the “Percent Growth” value ([6]; Log10 Concentration −5.0) was 84%. For the same molecule, the “Percent Growth” value ([6]; Log10 Concentration −6.0) was 91%, the “Percent Growth” value ([6]; Log10 Concentration −7.0) was 97% and the “Percent Growth” value ([6]; Log10 Concentration −8.0) was 89%. The “Percent Growth” value ([7]; Log10 Concentration −4.0) was −87%, the “Percent Growth” value ([7]; Log10 Concentration −5.0) was 29% and the “Percent Growth” value ([7]; Log10 Concentration −6.0) was 85%. The “Percent Growth” value ([7]; Log10 Concentration −7.0) was 94%, the “Percent Growth” value ([7]; Log10 Concentration −8.0) was 95% and the “Percent Growth” value ([8]; Log10 Concentration −4.0) was −88%. The “Percent Growth” value ([8]; Log10 Concentration −5.0) was 68%, the “Percent Growth” value ([8]; Log10 Concentration −6.0) was 80% and the “Percent Growth” value ([8]; Log10 Concentration −7.0) was 83%. For the same molecule, the “Percent Growth” value ([8]; Log10 Concentration −8.0) was 86%, the “Percent Growth” value ([9]; Log10 Concentration −4.0) was −8% and the “Percent Growth” value ([9]; Log10 Concentration −5.0) was 83%. The “Percent Growth” value ([9]; Log10 Concentration −6.0) was 85%, the “Percent Growth” value ([9]; Log10 Concentration −7.0) was 92% and the “Percent Growth” value ([9]; Log10 Concentration −8.0) was 95%. For the same molecule, the “Percent Growth” value ([10]; Log10 Concentration −4.0) was −82%, the “Percent Growth” value ([10]; Log10 Concentration −5.0) was 13% and the “Percent Growth” value ([10]; Log10 Concentration −6.0) was 88%. The “Percent Growth” value ([10]; Log10 Concentration −7.0) was 103%, the “Percent Growth” value ([10]; Log10 Concentration −8.0) was 98% and the “Percent Growth” value ([11]; Log10 Concentration −4.0) was 4%. For the same molecule, the “Percent Growth” value ([11]; Log10 Concentration −5.0) was 80%, the “Percent Growth” value ([11]; Log10 Concentration −6.0) was 90% and the “Percent Growth” value ([11]; Log10 Concentration −7.0) was 89%. The “Percent Growth” value ([11]; Log10 Concentration −8.0) was 92%, the “Percent Growth” value ([12]; Log10 Concentration −4.0) was −89% and the “Percent Growth” value ([12]; Log10 Concentration −5.0) was 19%. For the same molecule, the “Percent Growth” value ([12]; Log10 Concentration −6.0) was 95%, the “Percent Growth” value ([12]; Log10 Concentration −7.0) was 102% and the “Percent Growth” value ([12]; Log10 Concentration −8.0) was 102%. The “Percent Growth” value ([13]; Log10 Concentration −4.0) was −09%, the “Percent Growth” value ([13]; Log10 Concentration −5.0) was 31% and the “Percent Growth” value ([13]; Log10 Concentration −6.0) was 97%. The “Percent Growth” value ([13]; Log10 Concentration −7.0) was 96%, the “Percent Growth” value ([13]; Log10 Concentration −8.0) was 97% and the “Percent Growth” value ([14]; Log10 Concentration −4.0) was −88%. The “Percent Growth” value ([14]; Log10 Concentration −5.0) was 24%, the “Percent Growth” value ([14]; Log10 Concentration −6.0) was 84% and the “Percent Growth” value ([14]; Log10 Concentration −7.0) was 89%. For the same molecule, the “Percent Growth” value ([14]; Log10 Concentration −8.0) was 97%, the “Percent Growth” value ([15]; Log10 Concentration −4.0) was −73% and the “Percent Growth” value ([15]; Log10 Concentration −5.0) was 83%. The “Percent Growth” value ([15]; Log10 Concentration −6.0) was 95%, the “Percent Growth” value ([15]; Log10 Concentration −7.0) was 95% and the “Percent Growth” value ([15]; Log10 Concentration −8.0) was 91%. The “Percent Growth” value ([16]; Log10 Concentration −4.0) was −96%, the “Percent Growth” value ([16]; Log10 Concentration −5.0) was −33% and the “Percent Growth” value ([16]; Log10 Concentration −6.0) was 93%. The “Percent Growth” value ([16]; Log10 Concentration −7.0) was 101%, the “Percent Growth” value ([16]; Log10 Concentration −8.0) was 100% and the “Percent Growth” value ([17]; Log10 Concentration −4.0) was −58%. The “Percent Growth” value ([17]; Log10 Concentration −5.0) was 74%, the “Percent Growth” value ([17]; Log10 Concentration −6.0) was 94% and the “Percent Growth” value ([17]; Log10 Concentration −7.0) was 109%. For the same molecule, the “Percent Growth” value ([17]; Log10 Concentration −8.0) was 106%, the “Percent Growth” value ([18]; Log10 Concentration −4.0) was −18% and the “Percent Growth” value ([18]; Log10 Concentration −5.0) was 61%. For the same molecule, the “Percent Growth” value ([18]; Log10 Concentration −6.0) was 86%, the “Percent Growth” value ([18]; Log10 Concentration −7.0) was 93% and the “Percent Growth” value ([18]; Log10 Concentration −8.0) was 92%. For the same molecule, the “Percent Growth” value ([19]; Log10 Concentration −4.0) was −85%, the “Percent Growth” value ([19]; Log10 Concentration −5.0) was 84% and the “Percent Growth” value ([19]; Log10 Concentration −6.0) was 104%. For the same molecule, the “Percent Growth” value ([19]; Log10 Concentration −7.0) was 100%, the “Percent Growth” value ([19]; Log10 Concentration −8.0) was 96% and the “Percent Growth” value ([20]; Log10 Concentration −4.0) was −67%. The “Percent Growth” value ([20]; Log10 Concentration −5.0) was 7%, the “Percent Growth” value ([20]; Log10 Concentration −6.0) was 88% and the “Percent Growth” value ([20]; Log10 Concentration −7.0) was 97%. For the same molecule, the “Percent Growth” value ([20]; Log10 Concentration −8.0) was 108%, the “Percent Growth” value ([21]; Log10 Concentration −4.0) was −42% and the “Percent Growth” value ([21]; Log10 Concentration −5.0) was 63%. For the same molecule, the “Percent Growth” value ([21]; Log10 Concentration −6.0) was 94%, the “Percent Growth” value ([21]; Log10 Concentration −7.0) was 94% and the “Percent Growth” value ([21]; Log10 Concentration −8.0) was 94%.
